# Primary screen of a compound library

Sequences of proteins named here, by UniProt entry; tags and fusion partners are left off.
UniProt E9BF75, entry or part of it: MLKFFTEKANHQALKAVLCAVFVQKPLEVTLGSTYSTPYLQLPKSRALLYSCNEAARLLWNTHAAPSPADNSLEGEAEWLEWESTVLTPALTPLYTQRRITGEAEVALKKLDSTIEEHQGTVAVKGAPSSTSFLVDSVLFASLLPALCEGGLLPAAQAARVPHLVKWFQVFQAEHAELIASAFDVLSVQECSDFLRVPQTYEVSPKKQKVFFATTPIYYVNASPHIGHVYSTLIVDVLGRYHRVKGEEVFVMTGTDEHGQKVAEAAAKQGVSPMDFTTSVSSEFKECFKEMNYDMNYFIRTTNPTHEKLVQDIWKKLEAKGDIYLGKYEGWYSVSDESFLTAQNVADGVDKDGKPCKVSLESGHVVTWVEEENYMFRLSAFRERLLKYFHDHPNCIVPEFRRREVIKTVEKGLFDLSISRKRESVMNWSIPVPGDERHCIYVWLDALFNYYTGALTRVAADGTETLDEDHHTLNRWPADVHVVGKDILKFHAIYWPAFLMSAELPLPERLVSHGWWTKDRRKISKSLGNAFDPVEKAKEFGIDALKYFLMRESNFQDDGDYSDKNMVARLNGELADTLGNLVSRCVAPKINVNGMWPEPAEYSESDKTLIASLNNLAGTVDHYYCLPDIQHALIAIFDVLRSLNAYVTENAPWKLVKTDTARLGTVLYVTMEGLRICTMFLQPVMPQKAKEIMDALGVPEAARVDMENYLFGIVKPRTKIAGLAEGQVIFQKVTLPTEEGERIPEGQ

Source: ChEMBL document CHEMBL3988442, “University of Dundee, Small-Polar-MMV Screening Library” (2021).

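Methionyl-tRNA synthetase (putative), Leishmania donovani (UniProt E9BF75). Primary screen of methionyl-tRNA synthetase; the read-out is not stated. The test concentration is not given. Values are per cent inhibition. Size under these conditions: about 68,000 compounds, about 24 of them at 50% or above in at least one test.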

All values are in %.
The record does not define 0% and 100%; most values in the screen are far below 50% and negative numbers occur (in some assays of this library far below -100).
Compounds were drawn at random from those tested, without regard to their results.

CC(O)c1cn(CC2CCN(C(=O)c3cccc(N(C)C)c3)CC2)nn1 (stereo unspecified) read 7.035%. CN(C)[C@@H]1C[C@@H](CO)N(C(=O)Nc2cccc(F)c2F)C1 gave 4.101%. COC(=O)N1CCc2ccccc2C1C(=O)NCc1nc(C)no1 (stereo unspecified) read 8.633%. Result for CCOCC1CN(S(=O)(=O)C2CC2)Cc2nn(C)cc21 (stereo unspecified) was 8.403%.

With Cc1ccc(C(=O)NCCN2CCOCC2)cc1N(C)S(C)(=O)=O the screen gave 3.951%. For CN(C)Cc1cccc(C(=O)N2CCCC(n3cncn3)C2)c1 (stereo unspecified) the result was 15.95%. Result for CN(CCOc1cccc(S(C)(=O)=O)c1)c1ccccc1 was 3.152%. CN(Cc1ccncc1)C1COC2(CCN(Cc3cccs3)CC2)C1 (stereo unspecified) gave 6.301%.

O=C(O)CSc1nnc(-c2ccn[nH]2)n1-c1ccccc1Cl read 9.804%. N[C@@H]1CC[C@H](C(=O)NCCn2cc(Cl)cn2)C1 gave 6.267%. CCCn1ccnc1CN1CCc2[nH]cnc2C1Cc1ccccc1 (stereo unspecified) read 2.857%. Result for CCN1CCn2c(C)cnc2C12CCN(C(=O)COC)CC2 was 6.09%.

CCOCC(=O)N1CCC2(CC1)CN(Cc1cccnc1)C(=O)CO2 read 13.14%. For CC(C)=CCN1C[C@H]2CC[C@@H]1CN(C(=O)Cn1c(C)cc(C)nc1=O)C2 the result was 12.58%. Cc1ccc(NS(=O)(=O)c2cnn(-c3ccccc3)c2)c(C(=O)O)c1 read 8.943%. With O=C(NCCc1cccnc1)C1CCCN(Cc2ccco2)C1 (stereo unspecified) the screen gave 4.469%.

O=C(N[C@@H]1CN(c2ncc(F)cn2)[C@@H]2COC[C@@H]21)c1cscn1 gave 17.13%. Result for Cc1ccc(N2CCC3(CCN(C(=O)c4ccnnc4)CC3)CC2)nn1 was 6.25%. Result for O=S1(=O)CCC(n2cc(C3=CCN(CCn4cccc4)CC3)cn2)C1 (stereo unspecified) was 9.756%. With CN1C[C@@H]2CN(C(=O)NCc3cccc(F)c3)CCC[C@]2(C(=O)O)C1 the screen gave -3.258%.

Result for Cn1cnc(C(=O)N2CC3(CCN(S(=O)(=O)c4ccccc4)C3)C2)c1 was 11.78%. CC(C)Oc1ncnc2c1CCN(c1cc(C(F)(F)F)ncn1)CC2 read 11.4%. With Cc1cnn(CC2CN(CC(=O)Nc3cc(C)no3)CCO2)c1 (stereo unspecified) the screen gave 18.42%. With COC1CCN(c2ccc(F)cc2CN(C)CC(N)=O)CC1 the screen gave 13.55%.

COCCN1CC(=O)c2sc(NC(C)C)nc2C1 gave 5.583%. Result for O=C1NCCN2CCN(Cc3ccc(Cl)c(Cl)c3)CC12 (stereo unspecified) was 14.89%. For CN(C)c1ccc(CC2COCCN(Cc3nccn3C)C2)nn1 (stereo unspecified) the result was 14.35%. With CNc1ncc(CN(C)Cc2cc3n(n2)CCNC3)cn1 the screen gave 4.839%.